Reference: PubChem BioAssay AID504774 (Drosophila RNAi Screening Center, 2011)

Screen: 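Genes required for cells to withstand methyl methanesulphonate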 (primary screen)
System: Drosophila Kc167 cells
Knock-down reagent: long dsRNA against Drosophila genes, about 0.25 µg dsRNA per well
Time to read-out: about 6 days: 3 days knock-down, then 3 days with or without MMS
Challenge: methyl methanesulphonate 0.004% (w/v) for 3 days after knock-down
Measured: 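ATP-dependent luminescence as a measure of live cells in MMS-exposed wells, quantile normalised within each plate, with replicate values also given as a mean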
Direction: mean viability with MMS and viability with MMS: higher = more surviving cells after MMS
The screen tested about 23,000 reagents; below is a random part of those with a known target gene and a result. 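Values are quantile-normalised luminescence on an arbitrary scale; higher means more cells surviving MMS.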 Reagents against one gene are numbered here. Not all columns of the deposit are shown.

P32
- mean viability with MMS: 3.65e6
- viability with MMS, replicate 1: 4.16e6

CG14913
- mean viability with MMS: 3.44e6
- viability with MMS, replicate 1: 4.04e6

Atxn7 #1
- mean viability with MMS: 3.26e6
- viability with MMS, replicate 1: 3.65e6

Atxn7 #2
- mean viability with MMS: 3.62e6
- viability with MMS, replicate 1: 4.13e6

CG32086
- mean viability with MMS: 3.53e6
- viability with MMS, replicate 1: 4.05e6

CR33318
- mean viability with MMS: 3.64e6
- viability with MMS, replicate 1: 4.06e6

Drs
- mean viability with MMS: 3.61e6
- viability with MMS, replicate 1: 4.13e6

CG12377 (retired record) #1
- mean viability with MMS: 3.30e6
- viability with MMS, replicate 1: 3.70e6

CG12377 (retired record) #2
- mean viability with MMS: 3.28e6
- viability with MMS, replicate 1: 3.69e6

CG12713
- mean viability with MMS: 3.51e6
- viability with MMS, replicate 1: 3.98e6

CG12560
- mean viability with MMS: 3.67e6
- viability with MMS, replicate 1: 4.23e6

CG5039
- mean viability with MMS: 3.73e6
- viability with MMS, replicate 1: 4.14e6

An excerpt from above, reduced to “mean viability with MMS”.
CG14913: 3.44e6
Atxn7 #1: 3.26e6
Atxn7 #2: 3.62e6

Additional results follow.
Fer3HCH
- mean viability with MMS: 3.62e6
- viability with MMS, replicate 1: 4.13e6

CR31541 (retired record)
- mean viability with MMS: 3.72e6
- viability with MMS, replicate 1: 4.07e6

Sps1
- mean viability with MMS: 3.29e6
- viability with MMS, replicate 1: 3.71e6

hwt
- mean viability with MMS: 1.68e6
- viability with MMS, replicate 1: 3.84e6

dtn
- mean viability with MMS: 3.62e6
- viability with MMS, replicate 1: 4.24e6

Spt20 #1
- mean viability with MMS: 2.95e6
- viability with MMS, replicate 1: 3.48e6

Spt20 #2
- mean viability with MMS: 3.40e6
- viability with MMS, replicate 1: 3.74e6

CG13036 (retired record)
- mean viability with MMS: 3.77e6
- viability with MMS, replicate 1: 4.22e6

HP1c
- mean viability with MMS: 3.67e6
- viability with MMS, replicate 1: 4.11e6

CG14339
- mean viability with MMS: 3.80e6
- viability with MMS, replicate 1: 4.24e6

fus #1
- mean viability with MMS: 3.52e6
- viability with MMS, replicate 1: 4.11e6

fus #2
- mean viability with MMS: 3.57e6
- viability with MMS, replicate 1: 4.06e6
